Binding data for 2 substances are collected here from paper PMC12162876.

Chains of the proteins cited; added tags and fusions are not shown. Lines headed by an entry give the natural chain unless they say otherwise; changes in a name come on top.
UniProt P11142: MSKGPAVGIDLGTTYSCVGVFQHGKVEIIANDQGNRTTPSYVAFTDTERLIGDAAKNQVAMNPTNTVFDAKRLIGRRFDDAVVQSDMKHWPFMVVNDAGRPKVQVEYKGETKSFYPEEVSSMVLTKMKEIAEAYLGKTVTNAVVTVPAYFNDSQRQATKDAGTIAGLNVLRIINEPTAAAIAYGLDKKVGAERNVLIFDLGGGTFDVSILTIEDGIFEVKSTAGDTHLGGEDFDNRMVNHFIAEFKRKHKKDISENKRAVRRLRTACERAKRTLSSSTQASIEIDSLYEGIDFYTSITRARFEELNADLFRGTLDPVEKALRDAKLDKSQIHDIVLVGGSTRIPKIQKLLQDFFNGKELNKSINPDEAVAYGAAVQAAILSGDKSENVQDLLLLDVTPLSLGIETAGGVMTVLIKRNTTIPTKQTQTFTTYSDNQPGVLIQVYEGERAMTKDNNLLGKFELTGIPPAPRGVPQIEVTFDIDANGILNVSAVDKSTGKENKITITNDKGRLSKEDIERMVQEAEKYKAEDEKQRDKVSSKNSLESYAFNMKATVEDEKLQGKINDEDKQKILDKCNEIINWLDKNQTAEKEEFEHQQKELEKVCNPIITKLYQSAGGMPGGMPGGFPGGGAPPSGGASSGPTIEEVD
UniProt P15104: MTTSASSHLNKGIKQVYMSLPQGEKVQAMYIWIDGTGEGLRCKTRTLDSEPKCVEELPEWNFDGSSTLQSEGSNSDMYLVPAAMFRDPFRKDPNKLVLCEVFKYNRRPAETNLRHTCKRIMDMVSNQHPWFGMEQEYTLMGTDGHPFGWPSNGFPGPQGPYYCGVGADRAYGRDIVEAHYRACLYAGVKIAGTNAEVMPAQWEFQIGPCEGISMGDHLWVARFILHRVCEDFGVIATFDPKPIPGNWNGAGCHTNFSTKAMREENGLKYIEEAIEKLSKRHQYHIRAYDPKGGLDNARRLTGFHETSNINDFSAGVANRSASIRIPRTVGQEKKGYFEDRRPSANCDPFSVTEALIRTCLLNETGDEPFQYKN

Results are given in words; binding and its absence hold for the method and conditions named. In cells and extracts the contact can be indirect. Some binding calls cover weakened binding; strength is not graded here.

This assay addresses HSPA8 (human (endogenous in primary nucleus pulposus cells)) (UniProt P11142). Put plainly: co-IP; NPC transfected with WT or mutant HA-tagged plasmids, lysate, specific antibodies and protein A/G magnetic beads, immunoblot; with or without starvation (Fig. 3j). (Immunoblotting shows a protein as a band on a membrane.)

For “HA-GLUL (WT) (from UniProt P15104 1-373) (enzyme)”, the binding entry was “binds”.

“HA-GLUL K276A (from UniProt P15104 1-373) (enzyme)”: the binding result is “no binding”.
